Test results reported in patent US8177896B2, “Antifouling furan-2-one derivatives” (The Hong Kong University of Science and Technology, priority 2008, dated 2012).
Read-outs that look alike come from different tables or passages of the source.

How the values were obtained:
[1] = tested on: Balanus amphitrite larvae; assay: Larval settlement bioassay, barnacle Balanus amphitrite cyprids; assay type: in vivo
Experimental: The nauplii were reared in freshly filtered nature seawater (FSW, 0.45 μm, 32 S salinity) and fed with Chaetoceros gracilis Schutt at 24° C. in the Coastal Marine Laboratory the Hong Kong University of Science and Technology (HKUST). Cyprids were stored for 2 days at 8° C. (aged cyprids) prior to being used in the bioassays. Ten μl of each test sample dissolved in dimethyl sulfoxide (DMSO) were transferred into a well in 24-well polystyrene plate after the addition of 1 ml of FSW. The control wells contained 1 ml of FSW and 10 μl of DMSO. About 15 cyprids were added in each well with triplicate samples being tested.

Hydroides elegans larvae = assay: Larval settlement bioassay, Hydroides elegans competent larvae; assay type: in vivo
Experimental: The 24-well plates were incubated at 28° C. for 24 h under a 15 h light/9 h dark photoperiod. The percentage of larval settlement and larval mortality was determined by counting the settled, live individuals under a dissecting microscope and expressing the result as a proportion of the total number of larvae in the well.

Bugula neritina larvae = assay: Larval settlement bioassay, Bugula neritina

| SMILES | LC50/EC50 [1] | LC50/EC50 (Hydroides elegans larvae) | LC50/EC50 ([1]; listed as compound 5) | LC50/EC50 (Hydroides elegans larvae; listed as compound 5) | LC50/EC50 (Bugula neritina larvae) | LC50/EC50 ([1]; listed as compound 6) | LC50/EC50 (Hydroides elegans larvae; listed as compound 6) | LC50/EC50 (Bugula neritina larvae; listed as compound 6) |
| --- | --- | --- | --- | --- | --- | --- | --- | --- |
| CCC(C)(O)CCCCCC1C=CC(=O)O1 (stereo not drawn) [Compound 1] | >5.9 | >8.3 | – | – | – | – | – | – |
| CC(=O)C(C)CCCCCC1C=CC(=O)O1 (stereo not drawn) [Compound 3] | >8.5 | >17.9 | – | – | – | – | – | – |
| CC(C)(O)CCCCCC1C=CC(=O)O1 (stereo not drawn) [Compound 4] | – | >16.7 | – | – | – | – | – | – |
| CC(O)C(C)CCCCCC1C=CC(=O)O1 (stereo not drawn) [Compound 2] | >8.8 | >22.7 | – | – | – | – | – | – |
| CC(CCCCCC1C=CC(=O)O1)C(C)OC1CCCCO1 (stereo not drawn) [Compound 5] | >27.8 | >15.6 | > 27.8 | > 10.5 | > 15.6 | – | – | – |
| CCCCCCCCC1C=CC(=O)O1 (stereo not drawn) [Compound 6, 5-octylfuran-2-one] | >97 | >119 | – | – | >250 | > 97 | > 250 | > 119 |
